# Results reported in PubChem BioAssay AID540256 (National Center for Advancing Translational Sciences (NCATS), 2011).
# Values joined by “and” are separate entries in the source; they are usually repeats but may differ in a detail not shown here. Equal entries are not always repeated. In all, about 300,000 compounds went through this assay and about 3,700 (1.2%) were called active. This list was built around the results that the source calls inconclusive (neither active nor inactive); the mix of calls is not that of the screen. Calls come from the whole dose curve; tested in HEK293 cells. Where the call is inconclusive, the potency comes from a doubtful curve fit.
# Assay: qHTS for Inhibitors of binding or entry into cells for Lassa Virus; note: nearly all actives have a fitted effect of over 50% in size
# Settings: Lassa virus pseudotype entry inhibition, cell reporter; activity change, negative = inhibition: at 37.9 µM (top of the series) unless noted
# % is set by controls: 0 for no effect and ±100 for the full control effect; potency is the fitted concentration of half-maximal effect.
Structure (SMILES),Potency,"activity change, negative = inhibition"
N#Cc1ccccc1CSc1nc(N2CCCCC2)nc(N2CCCCC2)n1,"inconclusive: 35.5 µM [inhibitor, single point]",
CC(=O)Nc1cccc(C(=O)NC2CCCc3c2cnn3-c2cc(C)cc(C)c2)c1 (stereo not given),"inconclusive: 8.91 µM [inhibitor, partial curve, poor fit]",
CCc1nn(CC(=O)NCCCN2CCOCC2)c(=O)c2cc3cc(F)ccc3n12,,inactive: 15.7% [at 46.1 µM]
CC(=O)N1c2ccc(S(=O)(=O)N3CCCCC3)cc2CC1C(=O)NCc1cccc(Cl)c1 (stereo not given),"inconclusive: 20 µM [inhibitor, partial curve, poor fit]",
COc1ccccc1NC(=O)C1=C(C)NC2=C(C(=O)CC(c3ccc(OC)c(OC)c3)C2)C1c1coc2ccccc2c1=O (stereo not given),"inconclusive: 29.1 µM [inhibitor, single point]",
CCC(C)NC(=O)c1ccccc1NC(=O)c1ccccc1N(C)S(C)(=O)=O (stereo not given),"inconclusive: 6.31 µM [activator, partial curve]",
CC(C)c1ccc(O)c(CN2CCN(c3ccccc3)CC2)c1,"inconclusive: 23.1 µM [inhibitor, single point]",
CN(Cc1cccc(F)c1)C(=O)CSc1nnnn1C1CC1,,inactive: 6.11%
Nc1ccc(Oc2ccc3nc(-c4ccccc4)c(-c4ccccc4)nc3c2)cc1,"inconclusive: 35.5 µM [inhibitor, single point]",
Cc1cccc(NC(=O)NC(C)CCc2ccccc2)c1 (stereo not given),,inactive: 14.6% [at 46.1 µM]
O=C(Cc1cccc(C(F)(F)F)c1)Nc1cccc(S(=O)(=O)N2CCCC2)c1,"inconclusive: 15.8 µM [inhibitor, partial curve, poor fit]",
O=S(=O)(O)c1ccc(N2N=C(c3ccccc3)CC2c2ccccc2)cc1 (stereo not given),,inactive: 12.8%
NC(=O)COc1ccc(C(=O)/C=C2/C(=O)Nc3ccccc32)cc1,"inconclusive: 35.5 µM [inhibitor, partial curve, poor fit]",
C(=Nc1ccc(N2CCOCC2)cc1)c1c[nH]c2ccccc12,"inconclusive: 6.31 µM [inhibitor, partial curve, poor fit]",
CCOC(=O)c1c(C)nn(-c2ccc(NC(=O)c3c(C)noc3C)cc2)c1C,"inconclusive: 12.6 µM [inhibitor, partial curve, poor fit]",
Cc1ccc(Cl)cc1N1CCN(C(=O)c2cn(C)c3ccc(S(=O)(=O)N4CCC(C)CC4)cc3c2=O)CC1,,inactive: 27% [at 46.1 µM]
CCOc1ccc(NC(=O)COC(=O)Cn2cnnn2)cc1OCC,,inactive: 7.08%
COc1ccc(NCc2nc3ccccc3n2CCOc2ccc(C)cc2)cc1,"inconclusive: 708 nM [inhibitor, partial curve, poor fit] and inconclusive: 35.5 µM [inhibitor, single point]",
COc1ccc(C(=O)/C=C/C(=O)N(Cc2ccc3c(c2)OCO3)C(C(=O)NC2CCCCC2)c2ccncc2)c(O)c1 (stereo not given),"inconclusive: 14.1 µM [inhibitor, partial curve, poor fit]",
Cc1ccc(S(=O)(=O)N(C)CCCC(=O)N2CCN(c3ccccn3)CC2)cc1,,inactive: -22.8%
O=C(NN1C(=O)c2ccc3c4c(ccc(c24)C1=O)CC3)c1ccc(Br)cc1,"inconclusive: 0.184 µM [activator, partial curve, poor fit]",
C=CCn1c(=O)c2c(nc3n2CCN3c2cccc(Cl)c2C)n(C)c1=O,,inactive: 2.59%

Structure (SMILES),Potency,"activity change, negative = inhibition"
CCN(CC)c1ccc(S(=O)(=O)N2CCOCC2)cc1NC(=O)COC(=O)/C=C/c1ccc(C)o1,"inconclusive: 10 µM [inhibitor, partial curve, poor fit]",
O=C(Cn1cnc2ccccc2c1=O)Nc1ccc(S(=O)(=O)N2CCOCC2)cc1,"inconclusive: 35.5 µM [activator, single point]",
CCN(CC)C(=O)CSc1nnc([C@H](Cc2c[nH]c3ccccc23)NC(=O)OC(C)(C)C)o1,"inconclusive: 18.3 µM [inhibitor, partial curve, poor fit]",
Cc1ccc(C2c3[nH]c4ccccc4c3CCN2C(=O)c2ccc(N(C)C)cc2)cc1 (stereo not given),"inconclusive: 11.2 µM [inhibitor, partial curve, poor fit]",
COc1ccc(Br)cc1CN1CCCC(C(=O)N2CCCCCC2)C1 (stereo not given),"inconclusive: 20 µM [inhibitor, single point]",
COc1ccc(Oc2ccc(-c3ccn[nH]3)cc2)cc1,"inconclusive: 0.891 µM [inhibitor, single point]",
CCOc1ccc(-c2cc(C(=O)NN)[nH]n2)cc1,,inactive: -7.4%
O=S(=O)(Nc1nc2ccccc2nc1-[n+]1cccc(N=C([O-])c2ccc(Cl)cc2)c1)c1ccccc1,"inconclusive: 35.5 µM [inhibitor, single point]",
N#Cc1ccc(COc2ccc(CCO)cc2-n2nc3ccccc3n2)cc1,,inactive: -27.1%
COc1ccc(/C=C/C(=O)OCC(=O)NCc2cccs2)cc1OC,"inconclusive: 8.2 µM [inhibitor, partial curve, poor fit]",
Nc1cc2c(cc1Cl)-c1ccc(Cl)cc1C2=O,,inactive: 16.5%
O=C(CSc1n[nH]c(=O)n1Cc1ccco1)N1CCOCC1,,inactive: 15.2%
CCOc1ccc2c(c1)nc(SCC(=O)c1ccc(Br)s1)n2C,"inconclusive: 29.1 µM [inhibitor, single point]",
CC1(C)CC(=O)C(C=NCCN2CCN(C(=O)C34CC5CC(CC(C5)C3)C4)CC2)=C(O)C1,,inactive: 0%
O=C(CCc1ccccc1)Nc1ccnn1C1CCN(Cc2ncc[nH]2)CC1,,inactive: 22.1% [at 46.1 µM]
CC(=O)NCCNC(=O)C1CCCCN1S(=O)(=O)c1ccccc1 (stereo not given),,inactive: 4.46%
COCCNc1c2c(nc3ccccc13)CCC2,,inactive: 6.08% [at 46.1 µM]
Cc1ccc(-c2cc(C(=O)Nc3ccc(S(=O)(=O)Nc4onc(C)c4C)cc3)[nH]n2)c(O)c1,"inconclusive: 12.6 µM [activator, single point]",
Brc1ccccc1-c1nnc(COc2ncnc3c2cnn3-c2ccccc2)o1,"inconclusive: 20 µM [inhibitor, single point]",
NC(=O)Cc1ccc2sc(-c3ccccc3)nc2c1,"inconclusive: 29.1 µM [inhibitor, single point]",
O=C1NC(=O)N(c2ccc(Cl)cc2)C(=O)/C1=C\c1ccc(Sc2nc3ccccc3[nH]2)o1,"inconclusive: 1.12 µM [inhibitor, partial curve, poor fit]",
CCCn1c(N)c(N(CCOC)C(=O)CCC2CCCCC2)c(=O)[nH]c1=O,"inconclusive: 1.58 µM [inhibitor, partial curve, poor fit]",

Structure (SMILES),Potency,"activity change, negative = inhibition"
O=C(c1cccs1)N(Cc1ccco1)Cc1cc2ccccc2[nH]c1=O,,inactive: 9.87%
COc1ccc2oc(C(=O)N3CCN(S(=O)(=O)c4ccc(F)cc4)CC3)c(C)c2c1,"inconclusive: 6.31 µM [inhibitor, partial curve, poor fit]",
Cc1ccc(C2CC(c3cccs3)=NN2C(=O)c2ccc(Br)o2)cc1 (stereo not given),"inconclusive: 35.5 µM [inhibitor, single point]",
CS(=O)(=O)CCNCc1nc(-c2ccc3ncnc(Nc4ccc(OCc5cccc(C(F)(F)F)c5)cc4)c3c2)cs1,"inconclusive: 0.0628 µM [activator, full curve, poor fit]",
CCN(C(=O)CSc1nnc(C)n1-c1ccc(C)cc1)c1c(N)n(Cc2ccccc2)c(=O)[nH]c1=O,"inconclusive: 3.55 µM [inhibitor, partial curve, poor fit]",
CCOC(=O)c1c(C)[nH]c(C)c1C(=O)COC(=O)c1ccc(S(=O)(=O)N(CC)CC)cc1,"inconclusive: 5.8 µM [inhibitor, full curve]",
COC(=O)c1nc(N)sc1-c1ccc(Cl)cc1,"inconclusive: 35.5 µM [inhibitor, single point]",
O=C(N/N=C/c1sc2ccccc2c1O)c1ccccc1,"inconclusive: 8.91 µM [inhibitor, partial curve, poor fit]",
COc1ccc(N(C(=O)COc2cccc(C)c2)S(=O)(=O)c2ccc(C)cc2)cc1,"inconclusive: 35.5 µM [inhibitor, single point]",
Cc1ccc(-n2ccnc(SCC(=O)NC3CCCC3)c2=O)cc1Cl,,inactive: 2.8%
Fc1ccc(-c2cc(C(F)(F)C(F)F)[nH]n2)cc1,,inactive: 5.62%
CCOC(=O)c1c(C)[nH]c(CCC(=O)Nc2ccc(N(CC)CC)cc2C)c1C,"inconclusive: 35.5 µM [inhibitor, single point]",
CCCCC1(C)NC(=S)N2N1C(=S)NC2(C)CCCC (stereo not given),"inconclusive: 35.5 µM [inhibitor, single point]",
Cc1cc(C)nc(NC(=S)Nc2ccc(F)cc2F)c1,,inactive: 2.77%
CCN1CCN(CCCN(Cc2ccco2)C(=S)Nc2ccccc2Cl)CC1,,inactive: -2.17%
CN(c1cccc(NC(=O)CN(c2cccc(F)c2)S(C)(=O)=O)c1)S(C)(=O)=O,"inconclusive: 35.5 µM [inhibitor, single point]",
Cn1c(=O)n(C)c2cc(C(=O)c3ccccc3)ccc21,"inconclusive: 0.82 µM [inhibitor, partial curve, poor fit]",
CNC(=O)C1CC(=O)N(CCc2ccc(OC)cc2)C(=Nc2ccc(OC)cc2)S1 (stereo not given),"inconclusive: 6.51 µM [inhibitor, partial curve]",
CC1(C)CC(=O)C2=C(C1)NC(Nc1nc3ccccc3o1)=NC2c1ccccn1 (stereo not given),,inactive: -10.4%
CCOC(=O)C1(CCOc2ccccc2)CCN(Cc2ccc(C)s2)CC1,"inconclusive: 35.5 µM [inhibitor, single point]",
COc1ccccc1-c1nnc(NC(=O)c2ccc3c(c2)OCO3)s1,"inconclusive: 2.51 µM [inhibitor, partial curve, poor fit]",

# Record cards (already shown).
# CS(=O)(=O)CCNCc1nc(-c2ccc3ncnc(Nc4ccc(OCc5cccc(C(F)(F)F)c5)cc4)c3c2)cs1 as listed: Potency: inconclusive: 0.0628 µM [activator, full curve, poor fit]
# CCN(C(=O)CSc1nnc(C)n1-c1ccc(C)cc1)c1c(N)n(Cc2ccccc2)c(=O)[nH]c1=O as listed: Potency: inconclusive: 3.55 µM [inhibitor, partial curve, poor fit]
# CN(c1cccc(NC(=O)CN(c2cccc(F)c2)S(C)(=O)=O)c1)S(C)(=O)=O as listed: Potency: inconclusive: 35.5 µM [inhibitor, single point]
# O=C(c1cccs1)N(Cc1ccco1)Cc1cc2ccccc2[nH]c1=O as listed: activity change, negative = inhibition: inactive: 9.87%
